About 45 (3%) of roughly 1,400 compounds were called active.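 The calls were made as follows: active = half-maximal dose of signal decrease from fit no higher than ten times the top valid tested dose; inconclusive = fit invalid, or curve flat with 30 to 70% inhibition; inactive = the rest.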 The list shows a part of the results. Results with a measured potency or affinity are listed apart.

The chains behind the UniProt entries cited, without tags or fusion partners. Where a name states a change or a piece, a line headed by the entry shows the natural chain unless it says otherwise.
UniProt O75164: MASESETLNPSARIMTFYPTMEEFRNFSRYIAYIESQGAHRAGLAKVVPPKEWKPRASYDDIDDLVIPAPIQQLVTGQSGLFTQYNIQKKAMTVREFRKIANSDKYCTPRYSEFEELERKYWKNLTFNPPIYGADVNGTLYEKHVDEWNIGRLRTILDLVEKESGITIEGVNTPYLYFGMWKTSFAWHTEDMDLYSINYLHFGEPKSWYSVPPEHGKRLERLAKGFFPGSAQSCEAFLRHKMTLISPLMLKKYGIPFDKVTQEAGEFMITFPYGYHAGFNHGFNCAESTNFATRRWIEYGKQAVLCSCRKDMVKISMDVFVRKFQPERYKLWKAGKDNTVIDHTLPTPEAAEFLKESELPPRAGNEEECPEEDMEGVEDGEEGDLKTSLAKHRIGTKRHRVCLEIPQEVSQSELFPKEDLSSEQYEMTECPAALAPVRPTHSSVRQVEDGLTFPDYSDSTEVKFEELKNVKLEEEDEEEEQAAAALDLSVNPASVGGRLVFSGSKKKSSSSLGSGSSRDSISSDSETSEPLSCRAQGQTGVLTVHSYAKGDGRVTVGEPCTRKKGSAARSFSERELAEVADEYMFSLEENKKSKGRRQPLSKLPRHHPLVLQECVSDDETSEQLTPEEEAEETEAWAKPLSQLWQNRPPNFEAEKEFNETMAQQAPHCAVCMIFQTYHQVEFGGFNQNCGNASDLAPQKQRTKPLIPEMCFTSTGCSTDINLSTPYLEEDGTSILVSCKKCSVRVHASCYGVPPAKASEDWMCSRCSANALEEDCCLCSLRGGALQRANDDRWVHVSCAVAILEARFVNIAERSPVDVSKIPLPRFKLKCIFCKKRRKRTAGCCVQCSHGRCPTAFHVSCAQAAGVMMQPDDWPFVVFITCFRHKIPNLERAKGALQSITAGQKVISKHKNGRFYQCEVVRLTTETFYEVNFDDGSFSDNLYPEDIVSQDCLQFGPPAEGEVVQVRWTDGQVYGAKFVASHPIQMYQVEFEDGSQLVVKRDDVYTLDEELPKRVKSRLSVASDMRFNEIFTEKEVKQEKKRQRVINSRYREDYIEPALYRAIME

This assay has as its target Lysine-specific demethylase 4A (Homo sapiens) (UniProt O75164). The assay is described as follows: inhibition of JMJD2A H3K9me3 demethylation – biochemical, DELFIA europium, cherry-picked samples, selectivity assay for GASC-1 inhibitor project, dose response (AID 488840).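 Also: europium signal reports the dimethyl H3K9 product detected by antibody so inhibitors lower it; 0% = median of neutral control wells and -100% = median of positive control wells.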 To be noted: GST-JMJD2A(1-420) H3K9me3 demethylation; at 6 µM (top of the series) unless noted.
Consider `NC(=O)Cn1nc([N+](=O)[O-])nc1Oc1ccccc1F`, for which the activity change, negative = inhibition was inactive: -0.225%.
Regarding `O=C(OCc1c(Cl)cccc1Cl)c1cnccn1`, the activity change, negative = inhibition was inactive: -3.04%.
As to `COc1cc(C(C(=O)NC2CCCCC2)N(Cc2cccs2)C(=O)Cc2c[nH]c3ccccc23)cc(OC)c1OC` (centres undefined), the activity change, negative = inhibition was inactive: -1.46%.
The result for `O=C(Cn1cnc2c(OCc3ccccc3)ncnc21)N1CCN(c2ccccn2)CC1` reads inactive: -3.78%.
With `COc1ccc(CCNC(=O)N2c3ccccc3Sc3ccccc32)cc1` the figure was inactive: -4.46%.
As to `COc1ccc(S(=O)(=O)N(C)C[C@H]2Oc3ccc(NC(=O)Cn4cnnn4)cc3C(=O)N([C@H](C)CO)C[C@@H]2C)cc1`, the activity change, negative = inhibition was inactive: -2.83%.
Take `CCc1nnc(NC(=O)CCC(=O)N2CCN(Cc3ccc(Cl)cc3)CC2)s1`: the activity change, negative = inhibition was inactive: 0.488%.
For the compound `COc1ccc(-c2cc(C(F)(F)F)n3nc(C(=O)NCCCN4CCOCC4)cc3n2)cc1`, the activity change, negative = inhibition was inactive: 0.776%.
Turning to `Cc1ccc(NC(=O)CSc2nnc(-c3cccs3)n2Cc2ccco2)cc1`, the activity change, negative = inhibition is inactive: 3.23%.
`CCOc1ccc(N2C(=O)CC(N(O)c3ccccc3)C2=O)cc1` (centres undefined): the activity change, negative = inhibition is inactive: -2.85%.
With `CCOC(=O)Cc1ccc(NC(=O)c2ccc(C(C)(C)C)cc2)cc1` the figure was inactive: 4.57%; with `COc1ccc(S(=O)(=O)C(C#N)c2nc3ccccc3nc2N2CCCCC2)cc1` (centres undefined), inactive: 2.79%.
With `CCn1c(CCn2ccnc2C)n[nH]c1=S` the figure was inactive: 0.682%; with `CCOC(=O)N1CCC(N2CCN(c3cc(C)ccc3C)CC2)CC1`, inactive: 0.00581%.
The result for `Oc1cc2ccccc2cc1-c1nnc2n1-c1ccccc1SC2` reads inactive: -5.93%.
As for `Cc1cc(=S)c2cccc(C)c2[nH]1`, the activity change, negative = inhibition was inactive: 2.78%.
The result for `N#CCCn1c(SCC(=O)N2CCN(S(=O)(=O)c3ccccc3)CC2)nc2ccccc21` reads inactive: -0.915%.
With `O=C(O)Cn1cc(/C=C2/SC(=O)N(CC(=O)N3CCCCCC3)C2=O)c2ccccc21` the figure was inactive: 5.21%; with `Cc1nnc(N(C)C(=O)c2ccccn2)s1`, inactive: -2.88%.
Take `Cc1c(C(c2ccc([N+](=O)[O-])cc2)c2c(C)n(C)n(-c3ccccc3)c2=O)c(=O)n(-c2ccccc2)n1C`: the activity change, negative = inhibition was inactive: -0.46%.
For the compound `CC(=O)Nc1ccc(CN2CCN(c3cccc(C(F)(F)F)c3)CC2)cc1`, the activity change, negative = inhibition is inactive: -9.19%.
With `CCN(CC(=O)Nc1ccc2c(c1)OCCO2)C(=O)CC1CCCC1` the figure was inactive: 6.07%; with `c1csc(Cn2nnnc2CN2CCN(c3nc4ccccc4s3)CC2)c1`, inactive: -4.77%; with `O=C(NCC1CCCO1)C(c1ccc(F)cc1)N(CCCN1CCOCC1)C(=O)c1ccc(-c2ccccc2)[nH]1` (centres undefined), inactive: 13.1%.
With `COc1ccc(NC(=O)N(C)C[C@H]2Oc3ccc(NC(=O)CCC(F)(F)F)cc3C(=O)N([C@H](C)CO)C[C@@H]2C)cc1` the figure was inactive: -0.526%.
As for `CCc1ccc([C@@H]2CC=C(C(=O)O)[C@H](c3ccc(Br)cc3)N2S(=O)(=O)c2ccc(C)cc2)cc1`, the activity change, negative = inhibition was inactive: -3.98%.
With `CCCN(CC(=O)Nc1ccccc1C)C(=O)C1CCN(S(=O)(=O)c2ccccc2C(F)(F)F)CC1` the figure was inactive: 4.14%.
The result for `CCOC(=O)C1=C(N)Oc2ccc3ccccc3c2C1c1cccnc1` (centres undefined) reads inactive: 1.91%; that for `CC(C)n1cnc2c(NCc3ccccc3)nc(NCc3ccccc3)nc21`, inactive: 4.61%; that for `Cc1cccc(NC(=O)CC2Nc3cccc4cccc(c34)NC2=O)c1` (centres undefined), inactive: -1.51%.
Regarding `C[C@]12c3[nH]c4ccccc4c3CCN1C(=O)C(CC(=O)NCc1cccc(C(F)(F)F)c1)C[C@@H]2C(=O)N1CCCCC1` (some centres undefined), the activity change, negative = inhibition was inactive: 0.594%.
With `O=C(/C=C/c1cccs1)NC1CCS(=O)(=O)C1` (centres undefined) the figure was inactive: 0.82%; with `CN(c1ccc(C(=O)O)cc1)S(=O)(=O)c1ccccc1`, inactive: 3.52%; with `O=S1(=O)CCC(N=Nc2c(O)n(Cc3ccccc3)c3ccccc23)C1` (centres undefined), inactive: 1.69%.
The result for `NS(=O)(=O)c1ccc(CNC(=S)Nc2ccc(F)c(Cl)c2)cc1` reads inactive: -0.901%; that for `COc1ccc(N2C(=O)CSC23CCCCC3)cc1`, inactive: 1.88%.
The result for `CC(C)(C)c1ccc(C2(C)NC(=O)N(CC(=O)Nc3ccc4c(c3)OCO4)C2=O)cc1` (centres undefined) reads inactive: 0.211%; that for `C[C@@H]1CCCCCCCCC(=O)OCCN(C(=O)OC(C)(C)C)[C@H](C)CCCCCCCCC(=O)OCCN(C(=O)OC(C)(C)C)[C@H](C)CCCCCCCCC(=O)OCCN1C(=O)OC(C)(C)C`, inactive: -1.16%.
For the compound `CCCCCCn1c(=O)[nH]c2nc3cc(N)ccc3nc2c1=O`, the activity change, negative = inhibition is inactive: -1.91%.
For `Cc1ccc(CSc2ncnc3onc(C)c23)cc1`, the activity change, negative = inhibition is inactive: -0.796%.
As to `CCS(=O)(=O)Nc1ccc(C2=NN(C(=O)c3ccco3)C(c3ccc(C)cc3)C2)cc1` (centres undefined), the activity change, negative = inhibition is inactive: -4.43%.
With `Cc1ccc2c(c1)C(=O)N1[C@H]3c4cc(Cl)ccc4OC[C@@H]3[C@H](c3ccccc3)[C@]1(C)C(=O)N2` the figure was inactive: -3.44%; with `COc1cccc(/C=C/C(=O)NCCc2ccc(OC)c(OC)c2)c1`, inactive: -1.71%.
With `C[C@]12c3[nH]c4ccccc4c3CCN1C(=O)C(CC(=O)NCCN1CCOCC1)C[C@@H]2C(=O)N1CCCCC1` (some centres undefined) the figure was inactive: -3.38%; with `O=C(Nc1cccc2ccccc12)OC1C=CS(=O)(=O)C1` (centres undefined), inactive: 2.29%.
The result for `CC1(C)C2CCC1(CS(=O)(=O)N1CCN(c3ccccc3F)CC1)C(=O)C2` (centres undefined) reads inactive: -1.62%; that for `O=C(Cc1ccccc1)NNC(=O)c1cccs1`, inactive: 4.12%; that for `CCN1C(=O)C(CC(=O)Nc2ccc(OC)cc2)N(CCc2ccccc2F)C1=S` (centres undefined), inactive: -0.736%.
Regarding `CC(NC(=O)CCC(=O)c1ccc(F)cc1)C1CC2CCC1C2` (centres undefined), the activity change, negative = inhibition was inactive: -4.09%.
With `COC(=O)[C@]1(Cc2ccccc2)N[C@H](CN(C)S(=O)(=O)c2ccc(F)cc2)[C@@H]2C(=O)N(Cc3ccccc3)C(=O)[C@@H]21` the figure was inactive: -1.31%.
For the compound `Cc1ccc(C(=O)N2CCN(c3ccc(Cl)cc3)CC2)cc1`, the activity change, negative = inhibition was inactive: -4.21%.
In the case of `CC(C)(C)c1ccc(C(=O)N2CCC(C(=O)NCc3ccncc3)CC2)cc1`, the activity change, negative = inhibition was inactive: 2.05%.
With `Cc1ccc2c(c1)c1c3n2CCCNC3CCC1` (centres undefined) the figure was inactive: -1.58%; with `COc1cc2c(cc1OC)CN(C(=O)CSc1n[nH]c(N)n1)CC2`, inactive: 0.695%.
As to `Cc1ccc(OCC(=O)Nc2ccccc2Sc2ccccc2)c([N+](=O)[O-])n1`, the activity change, negative = inhibition is inactive: -1.07%.
The result for `CCN(CC)CCCOc1ccc(C)cc1Br` reads inactive: 0.073%; that for `CC1CCN(c2ccc3c(c2)S(=O)(=O)c2cccc(C(=O)NC4CC4)c2C3=O)CC1`, inactive: -1.56%.
For `O=C1CC(CSc2ccc(Cl)cc2)=NN1`, the activity change, negative = inhibition is inactive: -2.85%.
The result for `CC1(C)[N+]([O-])=C2C(=[N+]([O-])C1(C)C)c1ccccc1/C2=N\O` reads inactive: -8.61%.
The result for `COc1cccc(CNC(=O)c2cc3c(cc2Cl)N2CCCCCC2=NS3(=O)=O)c1` reads inactive: -0.22%.
Regarding `CCCNC(=O)c1ccccc1N1CCN(CCCCN2C(=O)C3CCCCN3C2=O)CC1` (centres undefined), the activity change, negative = inhibition is inactive: 4.2%.
With `CCC(=O)Nc1cc2c(C)cc(=O)oc2cc1C` the figure was inactive: 2.46%.
With `CCOc1ccccc1N(CC(=O)O)S(=O)(=O)c1ccc(C)cc1` the figure was inactive: -6.21%; with `O=C(COC(=O)c1ccccc1SCC(=O)N1CCCC1)NC1CCS(=O)(=O)C1` (centres undefined), inactive: -13.5%; with `COc1ccccc1NC(=O)COC(=O)/C=C/c1cccs1`, inactive: 4.06%.
Take `Cc1cc(C)c(S(=O)(=O)Nc2cc(SCC(=O)O)c(O)c3ccccc23)cc1C`: the activity change, negative = inhibition is inactive: 11.9%.
The result for `CC(=O)OC(C(=O)NCc1ccc2c(c1)OCO2)c1ccccc1Cl` (centres undefined) reads inactive: 2.67%; that for `Nc1nc2n(n1)C(c1cccs1)CC(c1ccccc1)N2` (centres undefined), inactive: -17.4%; that for `CCc1ccc(NC(=O)N(CCN2CCOCC2)C2CCN(C(C)=O)CC2)cc1`, inactive: 4.41%.
Consider `CSCCC(NS(=O)(=O)c1ccc2ccccc2c1)C(=O)O` (centres undefined), for which the activity change, negative = inhibition was inactive: 0.036%.
With `CC(=O)C[C@@H](O)CC(=O)[C@@H]1OC(=O)[C@@H](C)C/C=C\Cc2ccccc21` the figure was inactive: -0.669%; with `COC(=O)c1ccccc1NC(=O)CC(NCc1ccccc1)C(=O)O` (centres undefined), inactive: -2.26%.
With `COc1ccc(N2CCN(C(=O)c3nn(C)c4c3CS(=O)(=O)c3ccccc3-4)CC2)cc1` the figure was inactive: 1.99%; with `COC(=O)C1=C(C)N(Cc2ccccc2)C(=NCCc2c[nH]c3ccccc23)N[C@H]1c1ccccc1`, inactive: 1.45%; with `COc1cccc(NC(=S)/C(=C(\[O-])c2ccc(C)c([N+](=O)[O-])c2)[n+]2ccccc2)c1`, inactive: 1.93%.
The result for `CCC(C)NCCCOc1ccc(C)cc1OC` (centres undefined) reads inactive: -7.21%; that for `CNC(=O)/C(C#N)=C/c1c(N(Cc2ccccc2)Cc2ccccc2)nc2ccccn2c1=O`, inactive: -3.91%.
`Cc1cccc(NC(=O)CSc2cccc3cccnc23)c1`: the activity change, negative = inhibition was inactive: 7.07%.
On to `Cc1occc1-c1nnc(SCC(=O)c2cc3ccccc3oc2=O)o1`, for which the activity change, negative = inhibition was inactive: 2.21%.
Consider `COc1ccc(OC)c(C2/C(=C(\O)c3ccc(OC)c(Cl)c3)C(=O)C(=O)N2CCN(C)C)c1` (centres undefined), for which the activity change, negative = inhibition was inactive: -1.87%.
The result for `CN(C)c1ccc(C(=O)OCC(=O)N2CCCC2)cc1` reads inactive: -8.32%.
Turning to `CC(=O)OCC1OC(OC2C[C@]3(C)C(CC(O)C4C([C@](C)(CCC=C(C)C)OC5OC(CO)C(O)C(O)C5O)CC[C@]43C)[C@@]3(C)CCC(O)C(C)(C)C23)C(O[C@@H]2OC(C)C(O)C(O)C2O)C(O)C1O` (some centres undefined), the activity change, negative = inhibition is inactive: -0.785%.
Take `COc1ccc(N(CC(=O)Nc2ccc(S(=O)(=O)N3CCCC3)cc2)S(C)(=O)=O)cc1OC`: the activity change, negative = inhibition is inactive: -3.77%.
With `Nc1cccc(C(=O)Nc2ccco2)c1` the figure was inactive: -3.86%.

Values taken from PubChem BioAssay AID488840 (Broad Institute, 2010).
